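Luminescence from an EWS-FLI1 target-promoter (NR0B1) reporter, set against a CMV-promoter reporter, two days after silencing single genes in TC32 Ewing sarcoma cells. Each siRNA was applied at 20 nM. A z-score of the log NR0B1-over-CMV signal, less the median of siRNAs with the same seed; more negative means a stronger specific loss of the NR0B1 reporter.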

The strongest results of the screen are mostly left out here. Sequences are the guide (antisense) strand, without overhang.

| # | siRNA | gene | seed-corrected z-score |
|---|---|---|---|
| 1 | `UGUAGUAUAGACACCGAUG` | CXCL16 | 0.1186 |
| 2 | `UUGUGCUCGACUGUAAAGC` | ATG14 | -0.3369 |
| 3 | `UCACGUUAUGUGACAAAGC` | SLC38A2 | -0.7703 |
| 4 | `UUGUUGGAUAUAACUAGUC` | TRIM37 | 1.488 |
| 5 | `UAUAUGUUUUCAUUUGAGG` | CFAP54 | 0.02334 |
| 6 | `UUUCAAUCCGGCUUUGACG` | ANKLE2 | -0.01128 |
| 7 | `UAGGUUAGCUGCAUCUUUG` | KLC1 | 2.317 |
| 8 | `UGCUAAUCCAACCAUAUCC` | GAD2 | -0.1194 |
| 9 | `UCUUGAUCCUUUCACUUCC` | RAD54B | -0.1285 |
| 10 | `ACUUGCAUAGGGAUCAUCC` | HMGN2P24 | 1.261 |
| 11 | `UCGGUUUUCAUACUCCAGG` | PLEK2 | -0.2881 |
| 12 | `UUUUCAUUCACUGGGACCU` | MTHFS | -0.369 |
| 13 | `UGUUCAUCCAGCAUAGUGA` | SNAP23 | 0.3826 |
| 14 | `UUUGGGACCAUACAGGACU` | ICAM3 | -0.408 |
| 15 | `UUUGGUGGUCUUGACAGCG` | LFNG | -0.07235 |
| 16 | `UACGUUCUCAUCUGUGCCG` | SLC35E2 | -0.08451 |
| 17 | `UUUGGGACAAGAUUCAGGC` | CHAF1A | -1.102 |
| 18 | `UUCCAUAUAGGUUAUUCUC` | PDHA2 | 0.4731 |
| 19 | `UUUCGAACAAUCUUCGGUG` | PHF8 | -0.003078 |
| 20 | `UAUAUGACCUUUGAAUCCC` | HDX | -1.215 |
| 21 | `UCUGUGAGCAUGCAGCGAC` | LOC732226 | -0.5694 |
| 22 | `UUAGGUGGUAUCAAUAGGC` | MED13L | 0.9677 |
| 23 | `UCACUUAGCUCUGUUAGGG` | GSDMA | -0.3856 |
| 24 | `UUUACUUCAAUCUUGCAUG` | CHRNB2 | -0.5944 |
| 25 | `UUUCUCACCAGUCUCCCUG` | ZNF565 | 0.8345 |
| 26 | `AAUGGUAUCUCUUCGACUU` | ZNF768 | 0.03765 |
| 27 | `ACAGUAAUGAGAAUUCUUG` | OR2T27 | 0.9078 |
| 28 | `AAAGCAUCAGGCAGGUUCC` | VN2R17P | 0.03767 |
| 29 | `UUCCGCACAGCCUUGAUAU` | DUS1L | 0.2697 |
| 30 | `AACUCUAAACGGAACACGC` | RTF1 | 1.744 |
| 31 | `UCAGACAUCAAUGGGCUCC` | LAMTOR4 | -0.5022 |
| 32 | `UCACGUAUACAACCUUUCC` | SLC6A11 | -0.2864 |
| 33 | `AACCAGUCGAUGAACAUAG` | BRAP | 0.6911 |
| 34 | `UUCUUUGUUGCUAAAGCAG` | USP32P2 | 0.1349 |
| 35 | `UUCUUGUUCAGAUAGUAGA` | EGLN3 | 0.07739 |
| 36 | `UAUCUCAUCCUGAUAUAGC` | ATG5 | -0.8597 |
| 37 | `AAAUCGGUCAUCAACCUUC` | INPP5F | -0.01551 |
| 38 | `AUUCGUGUAGUUCUGGUCU` | GP2 | 0.6916 |
| 39 | `UUGAGUACCACUUCAUGCC` | PGBD2 | 0.3412 |
| 40 | `UGGUGUUCCACAAAGGGUU` | PSMB4 | 0.6742 |
| 41 | `AAAUCUUGCACUAUUGUCC` | TMEM2 | -0.4005 |
| 42 | `UGCAUCAUAAAUGCUAAUC` | NTAN1 | 0.4283 |
| 43 | `UACAUAGUCUUUUCUAUAC` | AADACL2 | 0.7121 |
| 44 | `UUCUUAAUCAGAUCCAGGU` | FGGY | 0.5124 |
| 45 | `UUUCUUACAGUCCAAGCAG` | RFFL | 0.678 |
| 46 | `UAACGAAAUAGCCCGAGAC` | TMED2 | 0.6167 |
| 47 | `UAUUUUGAAGAUGCGAAUC` | RAB33A | 0.5746 |
| 48 | `UGUACAACCAGUCAAGUAG` | METTL14 | -0.475 |

5 of the entries, repeated:

siRNA,gene,seed-corrected z-score
UUUGGGACCAUACAGGACU,ICAM3,-0.408
UCACGUAUACAACCUUUCC,SLC6A11,-0.2864
AACCAGUCGAUGAACAUAG,BRAP,0.6911
UAUAUGACCUUUGAAUCCC,HDX,-1.215
AAAGCAUCAGGCAGGUUCC,VN2R17P,0.03767

The results are deposited in PubChem (AID1159506; NCATS, 2015).